± gives the uncertainty stated by the source. The uncertainty is large for many entries.
Experiment: self-splicing fitness, log relative to wild type (ln ratio); higher = more splicing; Tetrahymena group I intron in knt gene, E. coli kanamycin selection, DiMSum; sequences stand for … in CUCUCU…GGAGGGAAAAGUUAUCAGGCAUGCACCUGGUAGCUAGUCUUUAAACCAAUAGAUUGCAUCGGUUUAAAAGGCAAGACCGUCAAAUUGCGGGAAAGGGGUCAACAGCCGUUCAGUACCAAGUCUCAGGGGAAACUUUGAGAUGGCCUUGCAAAGGGUAUGGUAAUAAGCUGACGGACAUGGUCCUAACCACGCAGCCAAGUCCUAAGUCAACAGAUCUUCUGUUGAUAUGGAUGCAGUUCACAGACUAAAUGUCGGUCGGGGAAGAUGUAUUCUUCUCAUAAGAUAUAGUCGGACCUCUCCUUAAUGGGAGCUAGCGGAUGAAGUGAUGCAACACUGGAGCCGCUGGGAACUAAUUUGUAUGCGAAAGUAUAUUGAUUAGUUUUGGAGUACUCGUGGUCG
In short: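 DiMSum derived fitness as the error-weighted combination of fold changes across replicates, kanamycin versus no kanamycin, normalised to wild type. E. coli BL21(DE3) held the library, which randomised all eight P1ex-region intron nucleotides within the knt kanamycin-resistance gene on pET-22b(+). Six replicate transformations grew overnight at 37°C or 30°C on LB agar with or without 25 μg/mL kanamycin, also containing 100 μg/mL carbenicillin, 50 μM IPTG and 0.2% rhamnose, and pooled colonies were amplicon-sequenced on an Illumina HiSeq 2500.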

| Sequence | self-splicing fitness (ln) (30 °C) | self-splicing fitness (ln) (37 °C) |
| --- | --- | --- |
| AGCGAGCAAUAUUACGUAAG | -3.4 ± 0.53 |  |
| GUGUAGCAAUAUUACGCGUU | -4.08 ± 0.72 |  |
| AAAUAGCAAUAUUACGUAAG | -1.37 ± 0.078 | -0.721 ± 0.096 |
| GGAGAGCAAUAUUACGCAUU |  | -2.72 ± 1 |
| GUCGAGCAAUAUUACGACCG |  | -0.902 ± 0.84 |
| CUAGAGCAAUAUUACGGGCU | -3.54 ± 0.76 | -2.84 ± 0.74 |
| CUGUAGCAAUAUUACGGCGC | -3.53 ± 0.6 | -1.49 ± 0.51 |
| CAGUAGCAAUAUUACGCGCC | -2.48 ± 1.1 | -1.13 ± 0.87 |
| AUAGAGCAAUAUUACGCCCG | -2.17 ± 0.87 | -1.53 ± 0.71 |
| UCGUAGCAAUAUUACGAAGG |  | -2.39 ± 1.1 |
| UCUUAGCAAUAUUACGUUGC |  | -3 ± 0.52 |
| GAAUAGCAAUAUUACGCUGU | -3.12 ± 0.21 | -2.1 ± 0.15 |
| UUAAAGCAAUAUUACGUUUU | -3.84 ± 0.2 | -2.27 ± 0.18 |
| AGACAGCAAUAUUACGCGAC | -3.41 ± 0.44 | -1.99 ± 0.21 |
| GAUGAGCAAUAUUACGCCCC | -0.716 ± 0.71 | -1.13 ± 1.2 |
| CAGUAGCAAUAUUACGUAUA | -1.62 ± 0.54 |  |
| CGAAAGCAAUAUUACGCAUC | -3.99 ± 0.61 |  |
| CCCUAGCAAUAUUACGAAAG |  | -2.75 ± 0.54 |
| UGGUAGCAAUAUUACGCGAC | -1.83 ± 0.59 |  |
| CCUAAGCAAUAUUACGUACU | -3.76 ± 0.43 | -3.01 ± 0.29 |
| AUUGAGCAAUAUUACGCCCC | -1.97 ± 1.2 |  |
| UAAUAGCAAUAUUACGCUGC |  | -2.64 ± 0.53 |
| CAGGAGCAAUAUUACGGACC |  | -3.34 ± 0.74 |
| GGUAAGCAAUAUUACGCUGG | -4.39 ± 0.51 | -3.25 ± 0.73 |

| Sequence | self-splicing fitness (ln) (30 °C) | self-splicing fitness (ln) (37 °C) |
| --- | --- | --- |
| UCCGAGCAAUAUUACGCUAA | -3.34 ± 0.52 | -2.86 ± 0.32 |
| UGUAAGCAAUAUUACGAACU | -0.349 ± 0.12 | -0.682 ± 0.12 |
| GAGAAGCAAUAUUACGUCGC |  | -1.66 ± 0.83 |
| GUCGAGCAAUAUUACGUCGG | -4.85 ± 1 |  |
| GGUCAGCAAUAUUACGACGA | -0.308 ± 0.072 | 0.501 ± 0.11 |
| GGCCAGCAAUAUUACGCUGC | -3.96 ± 1 |  |
| UAAUAGCAAUAUUACGUUCC | -3.48 ± 1.1 |  |
| GAGAAGCAAUAUUACGACCC |  | -0.185 ± 0.53 |
| GGGCAGCAAUAUUACGCCCG |  | -1.73 ± 0.59 |
| CUUAAGCAAUAUUACGAAAC | -3.58 ± 1 | -2.09 ± 0.65 |
| UUGAAGCAAUAUUACGAGUC | -3.73 ± 0.32 | -2.8 ± 0.38 |
| AUGGAGCAAUAUUACGAGAA | -1.02 ± 0.63 |  |
| AUGGAGCAAUAUUACGGACC |  | -0.61 ± 0.78 |
| AGUCAGCAAUAUUACGGACC | -1.64 ± 0.74 | -0.685 ± 0.82 |
| CUGGAGCAAUAUUACGAUCU | -1.96 ± 0.87 | -2.19 ± 0.57 |
| UCAUAGCAAUAUUACGAUAC |  | -3.03 ± 0.6 |
| CCCGAGCAAUAUUACGUGGG | -3.97 ± 0.19 | -2.79 ± 0.19 |
| UAAUAGCAAUAUUACGCCGC | -3.34 ± 1 | -1.02 ± 0.53 |
| UCCGAGCAAUAUUACGCCAA | -2.68 ± 0.68 |  |
| CCCGAGCAAUAUUACGAACC |  | -1.99 ± 0.66 |
| ACCGAGCAAUAUUACGGUCC |  | -0.214 ± 0.61 |
| UACCAGCAAUAUUACGGUAG | -2.15 ± 0.086 | -1.16 ± 0.083 |
| UUAUAGCAAUAUUACGGGGC |  | -2.54 ± 0.54 |
| CGCCAGCAAUAUUACGGGCG | -4.97 ± 0.58 |  |

| Sequence | self-splicing fitness (ln) (30 °C) | self-splicing fitness (ln) (37 °C) |
| --- | --- | --- |
| UUUGAGCAAUAUUACGCUCC |  | -0.74 ± 0.67 |
| UCGGAGCAAUAUUACGUCAA | -2.81 ± 0.55 |  |
| AAGGAGCAAUAUUACGAUUA | -3.64 ± 0.74 |  |
| GGAGAGCAAUAUUACGAGUG | -3.94 ± 0.6 | -1.95 ± 0.51 |
| UCCGAGCAAUAUUACGACCC |  | -2.39 ± 1.1 |
| AGUAAGCAAUAUUACGUCGU | -2.12 ± 0.13 | -0.496 ± 0.12 |
| UUGAAGCAAUAUUACGGUCC | 0.526 ± 1.1 |  |
| CGAGAGCAAUAUUACGAUUA | -3.17 ± 1 | -2.31 ± 0.64 |
| GGGCAGCAAUAUUACGGUAA | -1.69 ± 0.27 | -0.663 ± 0.19 |
| CGCGAGCAAUAUUACGACCC |  | -1.35 ± 0.51 |
| AGUGAGCAAUAUUACGACUC |  | -3.46 ± 0.73 |
| AGGGAGCAAUAUUACGGGAC |  | -0.44 ± 1 |
| UGGGAGCAAUAUUACGUACU | -4.29 ± 1.1 |  |
| CAAAAGCAAUAUUACGCCAU | -3.4 ± 0.2 | -2.61 ± 0.23 |
| CGGGAGCAAUAUUACGGUAC |  | -1.84 ± 0.64 |
| GAGCAGCAAUAUUACGAACC | -0.844 ± 0.5 | 0.0981 ± 1.2 |
| AACGAGCAAUAUUACGGGGU |  | -3.04 ± 0.74 |
| UUCAAGCAAUAUUACGCUUC | -3.09 ± 0.22 | -2.8 ± 0.44 |
| UGAUAGCAAUAUUACGGGGC |  | -3.36 ± 0.6 |
| CCGAAGCAAUAUUACGUCCU | -3.34 ± 0.74 | -1.89 ± 0.28 |
| GGGGAGCAAUAUUACGUCGG | -5.44 ± 1 |  |
| CUAGAGCAAUAUUACGGACC | -2.46 ± 0.84 |  |
| UGAGAGCAAUAUUACGCUUC |  | -1.81 ± 0.67 |
| UAGGAGCAAUAUUACGCAGA | -2.02 ± 1.2 | -1.95 ± 0.6 |

| Sequence | self-splicing fitness (ln) (30 °C) | self-splicing fitness (ln) (37 °C) |
| --- | --- | --- |
| CUCCAGCAAUAUUACGGCAG | -4.58 ± 0.21 | -1.75 ± 0.15 |
| GGUUAGCAAUAUUACGGCCC |  | -2.08 ± 1.1 |
| CCGCAGCAAUAUUACGCUGG | -2.24 ± 0.11 | -2.92 ± 0.24 |
| UUGUAGCAAUAUUACGAAGG | -3.83 ± 0.6 |  |
| AGGGAGCAAUAUUACGGCUG |  | -1.69 ± 1.2 |
| UCGCAGCAAUAUUACGAUCG | -0.735 ± 0.092 | -0.359 ± 0.12 |
| UCAUAGCAAUAUUACGAGUC | -1.48 ± 0.56 | -2.3 ± 0.51 |
| UCCAAGCAAUAUUACGCCAC | -3.46 ± 1.1 |  |
| CUUUAGCAAUAUUACGUCAC | -4.04 ± 1.1 |  |
| GGUGAGCAAUAUUACGAGCC | -2.84 ± 0.53 |  |
| UUUGAGCAAUAUUACGCGCU | -5.13 ± 1 | -2.32 ± 0.63 |
| CGGGAGCAAUAUUACGAUCA | -3.31 ± 0.53 |  |
| GGAGAGCAAUAUUACGAUAA | -3.8 ± 0.77 |  |
| UCGGAGCAAUAUUACGACCU | -2.52 ± 0.8 |  |
| GUGGAGCAAUAUUACGGCAG | -2.38 ± 0.51 | -0.726 ± 0.84 |
| UUUGAGCAAUAUUACGCCGC | -3.02 ± 0.61 | -1.69 ± 0.68 |
| GUGAAGCAAUAUUACGUUGA | -1.56 ± 0.078 | -0.398 ± 0.093 |
| UCUGAGCAAUAUUACGCGCA |  | -3.24 ± 0.52 |
| UCCAAGCAAUAUUACGGGGC | -4.07 ± 0.23 | -3.13 ± 0.2 |
| UAGGAGCAAUAUUACGCACC | -2.65 ± 1.1 | -2.86 ± 0.75 |
| AACUAGCAAUAUUACGCGAC |  | -2.26 ± 0.56 |
| CUGAAGCAAUAUUACGCAUC |  | -2.5 ± 0.55 |
| CUGGAGCAAUAUUACGGCGU |  | -2.76 ± 0.54 |
